Results are given in words; binding and its absence hold for the method and conditions named. In cells and extracts the contact can be indirect. Some binding calls cover weakened binding; strength is not graded here. For part of these data: Where a sequence is shown, tags or fusion partners need not be part of it.
T1: Myc-TAK1 (transforming growth factor-β-activated kinase 1) (UniProt O43318)
T1 sequence: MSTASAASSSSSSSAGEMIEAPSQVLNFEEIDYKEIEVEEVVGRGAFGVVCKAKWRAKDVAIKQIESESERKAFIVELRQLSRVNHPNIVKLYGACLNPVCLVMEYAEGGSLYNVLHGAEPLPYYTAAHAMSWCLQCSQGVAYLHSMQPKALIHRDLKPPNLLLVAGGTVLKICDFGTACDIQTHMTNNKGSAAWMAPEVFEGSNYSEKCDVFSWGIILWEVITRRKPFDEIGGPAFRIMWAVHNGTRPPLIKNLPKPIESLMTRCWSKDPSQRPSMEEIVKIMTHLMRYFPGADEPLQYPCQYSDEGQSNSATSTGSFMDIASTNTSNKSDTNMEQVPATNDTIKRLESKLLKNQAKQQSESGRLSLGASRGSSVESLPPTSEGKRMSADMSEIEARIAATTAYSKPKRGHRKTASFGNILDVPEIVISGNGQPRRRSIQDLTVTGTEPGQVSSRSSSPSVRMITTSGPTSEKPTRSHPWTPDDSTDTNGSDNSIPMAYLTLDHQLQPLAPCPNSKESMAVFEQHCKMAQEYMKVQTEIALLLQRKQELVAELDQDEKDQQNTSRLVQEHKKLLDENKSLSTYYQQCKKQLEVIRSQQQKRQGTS

By UniProt entry, the sequences of proteins in these tests, tags left out.
UniProt P12520: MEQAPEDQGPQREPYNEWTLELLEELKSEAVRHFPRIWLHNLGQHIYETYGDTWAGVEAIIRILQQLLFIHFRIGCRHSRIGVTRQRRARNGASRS

T2: endogenous TAK1 (transforming growth factor-β-activated kinase 1) (human (endogenous in HEK293T)) (UniProt O43318)
T2 sequence: T1 sequence

B1: endogenous TAK1 (transforming growth factor-β-activated kinase 1) (enzyme, UniProt O43318 1-606)
chain: T1 sequence
B2: endogenous TAB3 (TAK1 binding protein 3) (protein, UniProt Q8N5C8 1-712)
chain: MAQSSPQLDIQVLHDLRQRFPEIPEGVVSQCMLQNNNNLEACCRALSQESSKYLYMEYHSPDDNRMNRNRLLHINLGIHSPSSYHPGDGAQLNGGRTLVHSSSDGHIDPQHAAGKQLICLVQEPHSAPAVVAATPNYNPFFMNEQNRSAATPPSQPPQQPSSMQTGMNPSAMQGPSPPPPPPSYMHIPRYSTNPITVTVSQNLPSGQTVPRALQILPQIPSNLYGSPGSIYIRQTSQSSSGRQTPQSTPWQSSPQGPVPHYSQRPLPVYPHQQNYQPSQYSPKQQQIPQSAYHSPPPSQCPSPFSSPQHQVQPSQLGHIFMPPSPSTTPPHPYQQGPPSYQKQGSHSVAYLPYTASSLSKGSMKKIEITVEPSQRPGTAINRSPSPISNQPSPRNQHSLYTATTPPSSSPSRGISSQPKPPFSVNPVYITYTQPTGPSCTPSPSPRVIPNPTTVFKITVGRATTENLLNLVDQEERSAAPEPIQPISVIPGSGGEKGSHKYQRSSSSGSDDYAYTQALLLHQRARMERLAKQLKLEKEELERLKSEVNGMEHDLMQRRLRRVSCTTAIPTPEEMTRLRSMNRQLQINVDCTLKEVDLLQSRGNFDPKAMNNFYDNIEPGPVVPPKPSKKDSSDPCTIERKARRISVTSKVQADIHDTQAAAADEHRTGSTQSPRTQPRDEDYEGAPWNCDSCTFLNHPALNRCEQCEMPRYT
B3: endogenous TAB2 (TAK1 binding protein 2) (protein, UniProt Q9NYJ8 1-693)
chain: MAQGSHQIDFQVLHDLRQKFPEVPEVVVSRCMLQNNNNLDACCAVLSQESTRYLYGEGDLNFSDDSGISGLRNHMTSLNLDLQSQNIYHHGREGSRMNGSRTLTHSISDGQLQGGQSNSELFQQEPQTAPAQVPQGFNVFGMSSSSGASNSAPHLGFHLGSKGTSSLSQQTPRFNPIMVTLAPNIQTGRNTPTSLHIHGVPPPVLNSPQGNSIYIRPYITTPGGTTRQTQQHSGWVSQFNPMNPQQVYQPSQPGPWTTCPASNPLSHTSSQQPNQQGHQTSHVYMPISSPTTSQPPTIHSSGSSQSSAHSQYNIQNISTGPRKNQIEIKLEPPQRNNSSKLRSSGPRTSSTSSSVNSQTLNRNQPTVYIAASPPNTDELMSRSQPKVYISANAATGDEQVMRNQPTLFISTNSGASAASRNMSGQVSMGPAFIHHHPPKSRAIGNNSATSPRVVVTQPNTKYTFKITVSPNKPPAVSPGVVSPTFELTNLLNHPDHYVETENIQHLTDPTLAHVDRISETRKLSMGSDDAAYTQALLVHQKARMERLQRELEIQKKKLDKLKSEVNEMENNLTRRRLKRSNSISQIPSLEEMQQLRSCNRQLQIDIDCLTKEIDLFQARGPHFNPSAIHNFYDNIGFVGPVPPKPKDQRSIIKTPKTQDTEDDEGAQWNCTACTFLNHPALIRCEQCEMPRHF
B4: endogenous TAB1 (TAK1 binding protein 1) (protein, UniProt Q15750 1-504)
chain: MAAQRRSLLQSEQQPSWTDDLPLCHLSGVGSASNRSYSADGKGTESHPPEDSWLKFRSENNCFLYGVFNGYDGNRVTNFVAQRLSAELLLGQLNAEHAEADVRRVLLQAFDVVERSFLESIDDALAEKASLQSQLPEGVPQHQLPPQYQKILERLKTLEREISGGAMAVVAVLLNNKLYVANVGTNRALLCKSTVDGLQVTQLNVDHTTENEDELFRLSQLGLDAGKIKQVGIICGQESTRRIGDYKVKYGYTDIDLLSAAKSKPIIAEPEIHGAQPLDGVTGFLVLMSEGLYKALEAAHGPGQANQEIAAMIDTEFAKQTSLDAVAQAVVDRVKRIHSDTFASGGERARFCPRHEDMTLLVRNFGYPLGEMSQPTPSPAPAAGGRVYPVSVPYSSAQSTSKTSVTLSLVMPSQGQMVNGAHSASTLDEATPTLTNQSPTLTLQSTNTHTQSSSSSSDGGLFRSRPAHSLPPGEDGRVEPYVDFAEFYRLWSVDHGEQSVVTAP

What was measured:
Experiment in all cases: co-IP
[1] = biological target: T1, Myc-TAK1 (transforming growth factor-β-activated kinase 1)
[2] = biological target: T2, endogenous TAK1 (transforming growth factor-β-activated kinase 1) (human (endogenous in HEK293T))
[3] = biological target: Flag-Vpr (HIV-1 viral protein R, from pNL4-3) (HIV-1 (NL4-3 strain)) (UniProt P12520)

Molecule	binding [1]	binding [2]	binding [3]
Flag-Vpr (HIV-1 viral protein R, from pNL4-3) (from UniProt P12520 1-96)	binds	binds	
B1			binds
B2		binds	
B3		binds	
B4		binds	

Source: paper PMC4057933
